For at least one compound, name, drawing or mass did not settle the structure.
Tested on: isolated guinea pig ileum
Test: Isolated guinea pig ileum induced contraction
Format: cell-based

Q: For `CC(=O)OCC[N+](C)(C)C` [Acetylcholine], which type of activity is on record?
A: Its type of activity is “agonist”.

— EP0303391B1, “Optical isomers of a spiroquinuclidine derivative” (State of Israel Represented by the Prime Minister's Office …, priority 1987, dated 1989)
